Data as given in PubChem BioAssay AID2685 (National Center for Advancing Translational Sciences (NCATS), 2010).
Some of the results follow. Shown are side measurements of this screen, not its main read-out; they come without a call. The list favours compounds with an active or inconclusive main result. Words in brackets tell the shape of the fitted curve; partial curves, single points and poor fits give uncertain potencies.

Test: qHTS Assay for Lipid Storage Modulators in Drosophila S3 Cells;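 on cell number change: cells counted by Cell Tracker Red CMTPX staining in the red channel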
Conditions: BODIPY lipid droplet fluorescence, 18-24 h; for cell number change: measured here: cell count max response, cells fed with added oleic acid
In short: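 Laser-scanning cytometry quantifies lipid droplet accumulation (500–530 nm total intensity; droplet/cell object ratio) in oleic acid-fed (400 uM added) Drosophila S3 cells treated with a concentration series. 20 uM Triacsin C defined 100% inhibition.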

[1] = measured here: lipid fluorescence (Fed channel) AC50, cells fed with added oleic acid
[2] = measured here: cell number channel AC50, cells fed with added oleic acid

| SMILES | cell number change [%] | AC50 [1] | AC50 [2] |
| --- | --- | --- | --- |
| COc1ccccc1Nc1nc(N)nc(CSC(=S)N2CCCCC2C)n1 (configuration not stated) | 20.3 | 130 nM [rising, full curve, poor fit] | – |
| N#Cc1cccc(NC(=O)CSc2sc3c(O)cc(=O)[nH]c3c2C#N)c1 | -10.3 | – | – |
| CCC(C)Nc1nc(N)c([N+](=O)[O-])c(NC2CCCCC2)n1 (configuration not stated) | -10.2 | 3660 nM [falling, partial curve] | 5800 nM [falling, single point] |
| Cc1cccc(NC(=O)CSCC(=O)Nc2ccccc2N2CCCC2)c1 | 47.1 | 13000 nM [rising, partial curve, poor fit] | 29100 nM [rising, single point] |
| CCSc1nnc(NC(=O)CSc2nnc(CNC(=O)c3ccc(OC)c(OC)c3)o2)s1 | -4.75 | – | 2060 nM [rising, partial curve, poor fit] |
| COc1ccc(N2C(=O)C(O)C2c2ccc(C)cc2)cc1 (configuration not stated) | -28.1 | 731 nM [falling, full curve] | – |
| COc1ccc(CN2C(=O)C(CC(C)C)Nc3ncnc(N4CCOCC4)c32)cc1 (configuration not stated) | -53 | 820 nM [falling, full curve] | 1460 nM [falling, full curve, poor fit] |
| COc1cc(C(=O)Nc2ccc(C(N)=O)cc2)c([N+](=O)[O-])cc1OC | -1.06 | 116 nM [rising, full curve] | 29.1 nM [rising, full curve, poor fit] |
| Cc1cc(N2CCC(C(N)=O)CC2)nc(-c2ccccc2)n1 | -5.22 | – | – |
| Cc1cc(C)n(/N=C\c2c(O)ccc3ccccc23)c(=O)c1C(N)=O | -23.5 | – | – |
| CCCn1c(O)c(N=Nc2ccc3ccccc3n2)c2ccccc21 | -66.7 | – | 651 nM [falling, full curve] |
| CCCCn1c(N)c(N(CCC(C)C)C(=O)COC(=O)c2ccco2)c(=O)[nH]c1=O | -7.22 | 14600 nM [falling, partial curve, poor fit] | – |
| O=C(CCS(=O)(=O)c1ccc(Cl)cc1)OCC(=O)N1CCCCC1 | -10.1 | 4610 nM [falling, partial curve] | – |
| CCOc1cc(/C=N/NC(N)=S)cc(Br)c1OCc1ccccc1C | -3.95 | – | – |
| CCOc1cccc(/C=N/NC(=O)C2CCCC2)c1O | 25.4 | 580 nM [rising, single point] | – |
| CC1=NN(c2ccccc2)C(=O)/C1=C\c1cc(C)n(-c2ccccc2)c1C | 7.45 | 6510 nM [falling, single point] | – |
| CC(C)N1CCC(N2CCN(Cc3ccc(-c4ccc(Cl)cc4)o3)CC2CCO)CC1 (configuration not stated) | 14.5 | 29100 nM [rising, single point] | – |
| CCN(CC)C(=O)C1=C(C)NC(=O)NC1c1ccccc1F (configuration not stated) | -4.59 | 6510 nM [falling, partial curve, poor fit] | – |
| O=S(=O)(NC1CCCC1)c1ccc(S(=O)(=O)N2CCN(c3ccccc3)CC2)cc1 | 78.1 | – | 2910 nM [rising, partial curve] |
| O=C1CCCN1c1ccc(S(=O)(=O)N2CCCCC2)cc1 | 23.7 | – | – |
| COc1ccc(CCN2C(=O)C3C4CC(C5C(C(=O)NN)=NOC45)C3C2=O)cc1OC (configuration not stated) | -22.9 | 25900 nM [falling, single point] | – |
| COc1ccc(-n2c(Cc3cccs3)nnc2SCC(=O)Nc2ccc3c(c2)OCCO3)cc1 | 18.6 | 731 nM [rising, full curve] | 517 nM [rising, full curve, poor fit] |
| NC(=O)c1ccsc1NC(=O)COC(=O)Cc1n[nH]c(=O)c2ccccc12 | -18.1 | 580 nM [falling, single point] | – |
| Cc1ccc(S(=O)(=O)NCc2ccc(C(=O)N3CCCC3)cc2)cc1 | 2.28 | 130 nM [falling, full curve, poor fit] | – |
| CCn1cc(C(=O)NC2CCCc3c2cnn3-c2cccc(C)c2C)cn1 (configuration not stated) | -34.7 | 820 nM [falling, full curve] | 291 nM [falling, full curve, poor fit] |
| COCCN(C(=O)c1ccc(OCC(C)C)cc1)c1c(N)n(Cc2ccccc2)c(=O)[nH]c1=O | -0.5 | – | – |
| Cc1ccc2[nH]c(=O)c(CN(Cc3ccccc3)Cc3nnnn3C3CCCC3)cc2c1 | -35.1 | 20600 nM [falling, single point] | 29100 nM [falling, single point] |
| CN(CC(=O)Nc1ccccc1C(F)(F)F)C(=O)c1ccc(N2C(=O)CCC2=O)cc1 | -6.36 | 18400 nM [falling, partial curve] | – |

2 successive records out of the list so far:

| SMILES | cell number change [%] | AC50 [1] | AC50 [2] |
| --- | --- | --- | --- |
| CC(C)N1CCC(N2CCN(Cc3ccc(-c4ccc(Cl)cc4)o3)CC2CCO)CC1 (configuration not stated) | 14.5 | 29100 nM [rising, single point] | – |
| CCN(CC)C(=O)C1=C(C)NC(=O)NC1c1ccccc1F (configuration not stated) | -4.59 | 6510 nM [falling, partial curve, poor fit] | – |
